A short description of data set [1]: general procedure: hybrid (solid and solution phase) peptide synthesis; symmetrical acid anhydride (ABI 430A); PyBOP for cyclisation/condensation. The note with it: whole synthesis; for isolated mass: scale 60 μmol.
A short description of data set [2]: Fmoc solid-phase peptide synthesis; symmetrical acid anhydride (ABI 430A); PyBOP for cyclisation/condensation. The note with it: whole synthesis, scale 10.4 μmol.

For some of these results: Strings that start with PEPTIDE1 are HELM notation: dots part the residues, brackets hold end groups and non-standard residues. * marks the point of attachment. Fmoc = O=C(OCC1c2ccccc2-c2ccccc21)*; Cbz = O=C(OCc1ccccc1)*; OBn = c1ccc(CO*)cc1

For Fmoc-GD(OBn)WHGTA-OH, the isolated mass in data set [1] is 40.5 mg.
Take Fmoc-GNWK(Cbz)GTA-OH: the isolated mass in data set [1] is given as 9.9 mg.
As to “Gly-Asp-Trp-His-Gly-Thr-Ala-Pro-Asp-Trp-Val-Tyr-Phe-Ala-His-Leu-Asp-Ile-Ile-Trp-OH”, the crude mass in data set [1] (scale 10.4 μmol) was determined as 19.2 mg.
In the case of “H-Gly-Asn-Trp-His-Gly-Thr-Ala-Pro-Asp-Trp-Leu-Tyr-Phe-Ala-His-Gln-Asp-Val-Ile-Trp-OH”, the crude mass in data set [1] (scale 15.6 μmol) came out at 56.0 mg.
On the same count and under the same terms, with “H-Gly-Asn-Trp-His-Gly-Thr-Ala-Pro-Asp-Trp-Val-Tyr-Tyr-Ala-His-Leu-Asp-Ile-Ile-Trp-OH” the figure was 63.5 mg.
In turn, “H-Gly-Asn-Trp-Lys-Gly-Thr-Ala-Pro-Asp-Trp-Val-Tyr-Phe-Ala-His-Leu-Asp-Ile-Ile-Trp-OH” came in with a crude mass in data set [1] (scale 10.4 μmol) of 30.0 mg.
Take “PEPTIDE1{G.N.W.H.G.T.A.P.D.W.V.Y.F.A.H.L.D.I.I.W}$$$$V2.0”: the crude mass in data set [2] stood at 25 mg.

The values are drawn from patent publication US6642355B2 (priority 1991, dated 2003).
